This passage reports binding results from US20200262889A1.

By UniProt entry, the sequences of proteins in these tests, tags left out. Where a name states a change or a piece, a line headed by the entry shows the natural chain unless it says otherwise.
UniProt Q80SW1: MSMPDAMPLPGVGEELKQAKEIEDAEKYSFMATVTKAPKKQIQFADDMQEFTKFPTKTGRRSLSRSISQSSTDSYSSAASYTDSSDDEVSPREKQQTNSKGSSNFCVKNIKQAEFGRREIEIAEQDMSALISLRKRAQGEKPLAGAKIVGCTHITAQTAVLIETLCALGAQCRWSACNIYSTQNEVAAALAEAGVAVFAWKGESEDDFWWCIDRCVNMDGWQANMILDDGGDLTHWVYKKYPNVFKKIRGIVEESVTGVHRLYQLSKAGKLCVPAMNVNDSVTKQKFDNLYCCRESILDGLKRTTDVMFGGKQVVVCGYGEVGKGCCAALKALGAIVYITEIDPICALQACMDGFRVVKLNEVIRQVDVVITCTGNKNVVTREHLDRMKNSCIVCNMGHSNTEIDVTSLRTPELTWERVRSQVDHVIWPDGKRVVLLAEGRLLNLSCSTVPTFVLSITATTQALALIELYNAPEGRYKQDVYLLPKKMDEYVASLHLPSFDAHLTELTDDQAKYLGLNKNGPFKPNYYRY

No constants are given. Whether binding was seen depends on the method and setting. In cells and extracts the contact can be indirect. Some entries that bind do so weakly or less than the wild type.

Experiment [1] deals with T1, human NaDC-1 (Solute carrier family 13 member 2, Slc13a2), wild type (human) (UniProt Q13183).
T1 sequence (looked up): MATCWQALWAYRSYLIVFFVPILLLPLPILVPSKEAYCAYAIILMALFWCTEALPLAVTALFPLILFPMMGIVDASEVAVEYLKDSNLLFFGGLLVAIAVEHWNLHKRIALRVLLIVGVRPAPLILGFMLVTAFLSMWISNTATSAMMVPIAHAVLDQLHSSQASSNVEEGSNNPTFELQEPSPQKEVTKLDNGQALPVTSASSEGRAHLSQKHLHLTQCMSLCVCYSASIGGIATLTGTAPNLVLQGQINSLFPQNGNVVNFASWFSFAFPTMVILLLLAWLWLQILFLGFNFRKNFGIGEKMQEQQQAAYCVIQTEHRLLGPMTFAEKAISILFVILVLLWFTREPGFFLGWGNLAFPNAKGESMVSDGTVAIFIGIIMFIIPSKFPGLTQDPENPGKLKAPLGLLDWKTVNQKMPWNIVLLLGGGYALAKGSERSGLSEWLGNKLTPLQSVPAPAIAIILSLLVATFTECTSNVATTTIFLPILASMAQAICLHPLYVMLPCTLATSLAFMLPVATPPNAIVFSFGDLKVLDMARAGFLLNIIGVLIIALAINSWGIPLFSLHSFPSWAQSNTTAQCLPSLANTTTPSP
The experiment in a line: coIP from HEK293T cells (legend of FIG. 5).

Experiment [2] addresses T1, human NaDC-1 (Solute carrier family 13 member 2, Slc13a2), wild type (human). The experiment in a line: coIP from HEK293T cells transfected with NaDC-1, IRBIT and/or SUCNR1, 1 mM succinate 10 min before lysis.

As to “IRBIT (IP3 receptor-binding protein released with IP3; S-adenosylhomocysteine hydrolase-like protein) (from UniProt Q80SW1 2-530)”, the binding entry in experiment [1] and in experiment [2] was “binds” each time.
